These results are taken from paper PMC11227718.

Sequences of proteins named here, by UniProt entry; tags and fusion partners are left off.
UniProt Q9P219: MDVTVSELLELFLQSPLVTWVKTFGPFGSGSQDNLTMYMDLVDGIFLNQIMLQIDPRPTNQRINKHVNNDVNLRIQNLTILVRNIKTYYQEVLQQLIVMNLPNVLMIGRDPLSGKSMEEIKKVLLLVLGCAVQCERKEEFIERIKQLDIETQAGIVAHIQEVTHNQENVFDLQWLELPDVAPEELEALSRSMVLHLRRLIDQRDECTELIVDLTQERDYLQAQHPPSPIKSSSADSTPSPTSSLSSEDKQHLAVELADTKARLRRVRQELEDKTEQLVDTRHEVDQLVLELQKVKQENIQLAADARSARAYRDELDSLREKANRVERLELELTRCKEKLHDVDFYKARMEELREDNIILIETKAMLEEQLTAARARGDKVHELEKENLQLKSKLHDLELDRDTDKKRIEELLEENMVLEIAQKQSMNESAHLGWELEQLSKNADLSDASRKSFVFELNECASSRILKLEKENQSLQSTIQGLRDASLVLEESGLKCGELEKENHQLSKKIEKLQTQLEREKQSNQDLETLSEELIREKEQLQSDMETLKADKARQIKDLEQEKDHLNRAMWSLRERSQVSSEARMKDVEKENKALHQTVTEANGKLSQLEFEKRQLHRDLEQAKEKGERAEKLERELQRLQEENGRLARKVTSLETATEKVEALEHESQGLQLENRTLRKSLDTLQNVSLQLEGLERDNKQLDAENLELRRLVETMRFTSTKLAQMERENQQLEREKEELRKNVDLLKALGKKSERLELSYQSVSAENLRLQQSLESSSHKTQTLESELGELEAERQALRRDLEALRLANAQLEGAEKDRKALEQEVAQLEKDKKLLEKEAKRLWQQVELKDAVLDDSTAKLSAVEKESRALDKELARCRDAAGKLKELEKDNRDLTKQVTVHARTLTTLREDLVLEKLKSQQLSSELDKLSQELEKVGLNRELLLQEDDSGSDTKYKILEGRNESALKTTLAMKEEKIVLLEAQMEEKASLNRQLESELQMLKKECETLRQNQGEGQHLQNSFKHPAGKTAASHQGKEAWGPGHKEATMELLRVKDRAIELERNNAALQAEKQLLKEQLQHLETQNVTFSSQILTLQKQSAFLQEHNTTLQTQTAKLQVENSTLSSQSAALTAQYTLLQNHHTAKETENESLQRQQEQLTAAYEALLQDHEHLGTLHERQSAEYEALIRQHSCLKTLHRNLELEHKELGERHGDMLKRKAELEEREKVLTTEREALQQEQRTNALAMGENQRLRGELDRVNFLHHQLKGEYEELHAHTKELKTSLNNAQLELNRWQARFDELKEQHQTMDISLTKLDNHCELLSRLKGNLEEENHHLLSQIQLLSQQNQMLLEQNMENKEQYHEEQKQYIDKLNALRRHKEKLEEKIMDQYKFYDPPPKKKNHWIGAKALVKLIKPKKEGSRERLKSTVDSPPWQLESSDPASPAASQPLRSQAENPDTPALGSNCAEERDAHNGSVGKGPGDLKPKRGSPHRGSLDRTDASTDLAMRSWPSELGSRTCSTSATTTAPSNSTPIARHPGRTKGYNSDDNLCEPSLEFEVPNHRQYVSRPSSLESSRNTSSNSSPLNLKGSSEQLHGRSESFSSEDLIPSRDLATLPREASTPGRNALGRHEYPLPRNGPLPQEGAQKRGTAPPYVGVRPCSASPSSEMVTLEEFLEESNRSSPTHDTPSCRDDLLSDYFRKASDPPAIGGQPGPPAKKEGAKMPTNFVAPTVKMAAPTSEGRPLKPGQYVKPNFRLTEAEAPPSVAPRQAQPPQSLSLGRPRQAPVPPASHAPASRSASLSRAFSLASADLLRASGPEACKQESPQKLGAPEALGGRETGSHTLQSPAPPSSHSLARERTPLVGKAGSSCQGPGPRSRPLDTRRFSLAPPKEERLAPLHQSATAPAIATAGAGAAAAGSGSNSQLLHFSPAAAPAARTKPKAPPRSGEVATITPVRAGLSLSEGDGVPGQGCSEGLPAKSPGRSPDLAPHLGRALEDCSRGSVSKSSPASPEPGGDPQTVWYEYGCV

In this experiment the target is Coiled-coil domain containing 88C (human (endogenous in breast cancer cell lines)) (UniProt Q9P219). Briefly: co-IP; anti-GALNT6 or anti-CCDC88C antibody immobilised on AminoLink plus coupling resin; cell lysates in Native lysis buffer with 1 mM PMSF incubated with the resin for 2 h; eluate analysed by immunoblotting; endogenous proteins.

No constants are given. Whether binding was seen depends on the method and setting. Binding seen in cells or lysates may run through a third protein. Some results given as binding are weak or reduced against the parent protein; the word gives no strength.

B1: polypeptide N-acetylgalactosaminyltransferase 6 (enzyme, UniProt Q8NCL4 1-622)
chain: MRLLRRRHMPLRLAMVGCAFVLFLFLLHRDVSSREEATEKPWLKSLVSRKDHVLDLMLEAMNNLRDSMPKLQIRAPEAQQTLFSINQSCLPGFYTPAELKPFWERPPQDPNAPGADGKAFQKSKWTPLETQEKEEGYKKHCFNAFASDRISLQRSLGPDTRPPECVDQKFRRCPPLATTSVIIVFHNEAWSTLLRTVYSVLHTTPAILLKEIILVDDASTEEHLKEKLEQYVKQLQVVRVVRQEERKGLITARLLGASVAQAEVLTFLDAHCECFHGWLEPLLARIAEDKTVVVSPDIVTIDLNTFEFAKPVQRGRVHSRGNFDWSLTFGWETLPPHEKQRRKDETYPIKSPTFAGGLFSISKSYFEHIGTYDNQMEIWGGENVEMSFRVWQCGGQLEIIPCSVVGHVFRTKSPHTFPKGTSVIARNQVRLAEVWMDSYKKIFYRRNLQAAKMAQEKSFGDISERLQLREQLHCHNFSWYLHNVYPEMFVPDLTPTFYGAIKNLGTNQCLDVGENNRGGKPLIMYSCHGLGGNQYFEYTTQRDLRHNIAKQLCLHVSKGALGLGSCHFTGKNSQVPKDEEWELAQDQLIRNSGSGTCLTSQDKKPAMAPCNPSDPHQLWLFV
With B1, the binding entry was “binds”.
